Experimental data published in patent US6506793B2, “Citral acetal” (Kao Corporation, priority 2000, dated 2003).

Assay: Measurement of sustained release: organoleptic evaluation of aroma from impregnated filter paper
Set-up: key to Strength of Aroma: 5: Strong; 4: Slightly strong; 3: Moderate; 2: Slightly weak; 1: Weak; 0: Does not smell
Conditions: for Strength of Aroma: 0.5 g (as citral) on filter paper, 10 cm from sample; for Aroma (character): organoleptic description, filter paper test

SMILES | Strength of Aroma (After 1 week) | Strength of Aroma (After 2 weeks) | Strength of Aroma (After 3 weeks) | Strength of Aroma (After 4 weeks) | Strength of Aroma (After 2 days) | Strength of Aroma (Just after application) | Aroma (character)
CCCCC(CC)COCC1COC(C=C(C)CCC=C(C)C)O1 (stereo not drawn) [Present Compound 3, citral 2-ethyl hexyl glyceryl ether acetal] | 1 | 2 | 2 | 1 | 0 | 0 | lemon-
COC(C=C(C)CCC=C(C)C)OC [CITRAL DMA, citral dimethyl acetal, reference compound] | 0 | 0 | 0 | 0 | 3 | 3 | citrus
CC(C)=CCC/C(C)=C/C1OCC(C)O1 (stereo not drawn) [CITRAL PGA, citral propylene glycol acetal, reference compound] | 1 | 1 | 0 | 0 | 0 | 0 | weak
CCCCCCCCOCC1COC(C=C(C)CCC=C(C)C)O1 (stereo not drawn) [Present Compound 2, citral n-octyl glyceryl ether acetal] | 1 | 2 | 2 | 1 | 0 | 0 | lemon-
CC(C)=CCCC(C)=CC=O [citral] | 0 | 0 | 0 | 0 | 4 | 5 | lemon-
CCCCCOCC1COC(C=C(C)CCC=C(C)C)O1 (stereo not drawn) [Present Compound 1, citral pentyl glyceryl ether acetal] | 1 | 2 | 2 | 1 | 0 | 0 | lemon-
